In paper PMC5996148:
Several values for one entry are separate records, joined by “and”; a condition that tells them apart may be missing. Equal values may be shown once. The list shows a part of the results.

Experiments:
Assay in all cases: protein microarray (ProtoArray v5.0), streptavidin-Alexa Fluor 647
Conditions in all cases: 3'-biotin; 20 mM Tris (pH 7.5), 5 mM MgCl2, 100 mM KCl, 0.1% Tween-20, A/T-rich and random oligonucleotide blockers; temperature not stated; high values mean tight binding
[1] = system: Coiled-coil domain-containing protein 115 (human)
[2] = system: Coiled-coil domain-containing protein 28A (human)
[3] = system: Coiled-coil domain-containing transmembrane protein C7orf53 (human)
[4] = system: Copper chaperone for superoxide dismutase (human)
Cyclin-Y (human) = system: Cyclin-Y (human)
[5] = system: Cyclin-dependent kinase-like 3 (human)
[6] = system: Cystathionine beta-synthase (human)
[7] = system: Cysteine dioxygenase type 1 (human)
[8] = system: Cytochrome b-c1 complex subunit 6, mitochondrial (human)
Cytoglobin (human) = system: Cytoglobin (human)

## GGTGACAGGGGTATGGGGAGGGG [G4-2 biotinylated (Ct1)]
[1]
  binding signal: -0.386 z-score
[2]
  binding signal: 6.78 z-score
[3]
  binding signal: -0.377 z-score
[4]
  binding signal: -0.384 z-score
Cyclin-Y (human)
  binding signal: -0.39 z-score
[5]
  binding signal: 6.29 z-score
[6]
  binding signal: -0.4 z-score
[7]
  binding signal: -0.37 z-score and -0.383 z-score
[8]
  binding signal: -0.381 z-score
Cytoglobin (human)
  binding signal: -0.397 z-score
